According to the supplement of paper PMC11348887:
Where a name gives a salt, the structure may show the parent alone. The list shows a part of the results. Small differences around the control level are noise.

Key:
Settings in all cases: 5 µM; treatment: days 7-14 after plating, readout day 21
[1] = tested on: hPSC-derived cortical neurons (WA09); test: nucleus area z-score vs screen plate; higher = larger nuclei (more mature)
[2] = tested on: hPSC-derived cortical neurons (WA09); test: total neurite length per nucleus (MAP2) z-score; higher = more neurite growth
[3] = tested on: hPSC-derived cortical neurons (WA09); test: nucleus roundness z-score vs screen plate; higher = rounder nuclei (more mature)
[4] = tested on: hPSC-derived cortical neurons (WA09); test: KCl-induced FOS+/EGR-1+ double-positive nuclei fraction z-score (KCl minus unstimulated); higher = stronger activity-induced IEG response

Structure (SMILES)	nucleus area z-score [1]	total neurite length per nucleus (z-score) [2]	nucleus roundness z-score [3]	KCl-induced FOS+/EGR-1+ double-positive nuclei fraction z-score [4]
C[C@]1(O)C[C@@H](c2nc(-c3ccc4ccc(-c5ccccc5)nc4c3)c3c(N)nccn32)C1 [OSI-906 (Linsitinib)]	-2.18	-0.684	-0.00736	-0.374
O=C1Cc2c([nH]c3ccc(Br)cc23)-c2ccccc2N1 [Kenpaullone]	0.273	0.216	0.882	1.59
CC1(O)CCC(C(C)(C)O)CC1 (stereo unspecified) [Terpin hydrate]	-0.0854	-0.536	-0.0712	0.567
C[C@]12C=CC(=O)N[C@@H]1CC[C@@H]1[C@@H]2CC[C@]2(C)[C@@H](C(=O)Nc3cc(C(F)(F)F)ccc3C(F)(F)F)CC[C@@H]12 [Dutasteride]	-0.0339	0.679	0.125	0.984
CC1(C)CC[C@]2(NC(=O)C(C)(F)F)CC[C@]3(C)[C@H](C(=O)C=C4[C@@]5(C)C=C(C#N)C(=O)C(C)(C)[C@@H]5CC[C@]43C)[C@@H]2C1 [Omaveloxolone (RTA-408)]	-5.89	-1.97	-1.58	-0.0842
Cc1cnc(NC(=O)Nc2cc(Br)c(C)cc2OC[C@@H]2CNCCO2)cn1	0.838	-0.249	0.1	3.04
CCC(=O)O[C@]1(C(=O)CCl)[C@@H](C)C[C@H]2[C@@H]3C[C@H](F)C4=CC(=O)C=C[C@]4(C)[C@@]3(F)[C@@H](O)C[C@@]21C [Halobetasol Propionate]	0.798	-0.564	-1.12	-1.62
Cc1cccc(-c2[nH]ncc2-c2ccc3ncccc3n2)n1	-0.422	-1.36	-2.23	-0.603
CCCS(=O)(=O)Nc1ccc(F)c(C(=O)c2c[nH]c3ncc(-c4ccc(Cl)cc4)cc23)c1F [Vemurafenib (PLX4032_ RG7204)]	0.459	-0.169	0.423	0.572
COc1cc(OC)c2c(=O)[nH]c(-c3cc(C)c(OCCO)c(C)c3)nc2c1	1.68	-0.296	-1.17	0.344
CN1C2=CC(=O)/C(=N\NC(N)=O)C=C2CC1S(=O)(=O)O (stereo unspecified) [Carbazochrome sodium sulfonate (AC-17)]	0.976	-0.645	-0.273	-0.536
COc1ccc(C(C)=O)c(O)c1 [Paeonol]	0.698	0.181	-0.0586	1.09
O=C(Oc1cc(S(=O)(=O)c2ccccc2)ccc1[N+](=O)[O-])c1ccc(Cl)cc1	2.49	-0.181	-0.46	0.63
COc1cccc(-c2ccc(NC(=O)C3=C(C(=O)O)CCC3)c(F)c2)c1 [Vidofludimus]	0.463	0.687	0.201	1.06
Cc1ccc(NC(=O)c2ccc(CN3CCN(C)CC3)cc2)cc1Nc1nc(-c2cccnc2)cs1 [Masitinib (AB1010)]	0.221	0.238	-0.497	0.218
C[C@@H]1COCCN1c1cc(C2([S@](C)(=N)=O)CC2)nc(-c2cc[nH]c3nccc2-3)n1	-0.623	-1.44	-1.68	-0.309
Cc1cccc(-c2[nH]c(C(C)(C)C)nc2-c2ccc3c(c2)OCO3)n1	2.05	-4.1	-7.95	-1.6
COCCCN1CCC(NC(=O)c2cc(Cl)c(N)c3c2OCC3)CC1 [Prucalopride]	-0.146	0.299	0.559	1.2
Cn1nnc2c(C(N)=O)ncn2c1=O [Temozolomide]	-2.86	-0.701	-1.31	-0.578
CCC[C@@H]1C[C@@H](C(=O)N[C@@H]([C@H]2O[C@H](SC)[C@H](O)[C@@H](O)[C@H]2O)[C@H](C)Cl)N(C)C1 [Clindamycin HCl]	0.987	0.927	0.336	1.6
O=C(Nc1ccccc1)Nc1ccc(-c2ccc(C(=O)[C@@H]3CCC[C@H]3C(=O)O)cc2)cc1	0.657	-0.324	-0.189	0.499
Clc1ccc(C2(c3ccc(-c4cn[nH]c4)cc3)CCNCC2)cc1	-1.93	0.326	0.51	-1.25
CCCCCCCCCCCCCCCCO [1-Hexadecanol]	1.27	0.519	-0.447	-0.34
C=CCNC(N)=S [Allylthiourea]	-0.466	0.301	0.662	0.813
CC[C@H](C)C(=O)O[C@H]1CCC=C2C=C[C@H](C)[C@H](CC[C@@H]3C[C@@H](O)CC(=O)O3)[C@H]21 [Mevastatin]	-1.09	0.0729	-0.558	-0.78
COc1ccc(-c2cc(=O)c3c(O)cc(O[C@@H]4O[C@H](CO[C@@H]5O[C@@H](C)[C@H](O)[C@@H](O)[C@H]5O)[C@@H](O)[C@H](O)[C@H]4O)cc3o2)cc1O [Diosmin]	-0.0304	-1.43	0.781	1.55
CC[C@@]1(O)C(=O)OCc2c1cc1n(c2=O)Cc2cc3cc(O)ccc3nc2-1 [(S)-10-Hydroxycamptothecin]	-1.03	-1.95	-2.16	-0.8
COc1cc(C(=O)N2CCC(N3CCN(C)CC3)CC2)ccc1Nc1ncc2c(n1)N(C)c1ccccc1C(=O)N2C	-3.44	-1.37	-3.04	-0.826
CCc1c2c(nc3ccc(OC(=O)N4CCC(N5CCCCC5)CC4)cc13)-c1cc3c(c(=O)n1C2)COC(=O)[C@]3(O)CC [Irinotecan HCl Trihydrate]	-0.0916	-0.861	-0.66	-0.811

Laid out differently: results already given.

| Structure (SMILES) | nucleus area z-score [1] | total neurite length per nucleus (z-score) [2] | nucleus roundness z-score [3] | KCl-induced FOS+/EGR-1+ double-positive nuclei fraction z-score [4] |
| --- | --- | --- | --- | --- |
| Cn1nnc2c(C(N)=O)ncn2c1=O [Temozolomide] | -2.86 | -0.701 | -1.31 | -0.578 |
| CCC[C@@H]1C[C@@H](C(=O)N[C@@H]([C@H]2O[C@H](SC)[C@H](O)[C@@H](O)[C@H]2O)[C@H](C)Cl)N(C)C1 [Clindamycin HCl] | 0.987 | 0.927 | 0.336 | 1.6 |
| O=C(Nc1ccccc1)Nc1ccc(-c2ccc(C(=O)[C@@H]3CCC[C@H]3C(=O)O)cc2)cc1 | 0.657 | -0.324 | -0.189 | 0.499 |
| Clc1ccc(C2(c3ccc(-c4cn[nH]c4)cc3)CCNCC2)cc1 | -1.93 | 0.326 | 0.51 | -1.25 |
| CCCCCCCCCCCCCCCCO [1-Hexadecanol] | 1.27 | 0.519 | -0.447 | -0.34 |
| C=CCNC(N)=S [Allylthiourea] | -0.466 | 0.301 | 0.662 | 0.813 |
| CC[C@H](C)C(=O)O[C@H]1CCC=C2C=C[C@H](C)[C@H](CC[C@@H]3C[C@@H](O)CC(=O)O3)[C@H]21 [Mevastatin] | -1.09 | 0.0729 | -0.558 | -0.78 |
| COc1ccc(-c2cc(=O)c3c(O)cc(O[C@@H]4O[C@H](CO[C@@H]5O[C@@H](C)[C@H](O)[C@@H](O)[C@H]5O)[C@@H](O)[C@H](O)[C@H]4O)cc3o2)cc1O [Diosmin] | -0.0304 | -1.43 | 0.781 | 1.55 |
